This passage reports binding results from paper doi:10.1101/2021.05.09.443305.

No constants are given. Whether binding was seen depends on the method and setting. Binding seen in cells or lysates may run through a third protein. Binding can be weak; no strength is given.

For experiment [1], the target named is T1, protein phosphatase 1 regulatory inhibitor subunit 14C (human (endogenous in SUM159PT)) (UniProt Q8TAE6).
T1 sequence: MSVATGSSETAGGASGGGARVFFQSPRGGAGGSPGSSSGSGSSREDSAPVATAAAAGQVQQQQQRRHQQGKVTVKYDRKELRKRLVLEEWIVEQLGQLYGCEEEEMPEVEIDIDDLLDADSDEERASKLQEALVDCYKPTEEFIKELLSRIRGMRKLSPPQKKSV
In words: co-IP.

For experiment [2], the target named is type 1 Ser/Thr protein phosphatase (human (endogenous in SUM159PT)). Nature of the experiment: co-IP.

As for “type 1 Ser/Thr protein phosphatase (human (endogenous in SUM159PT)) (enzyme)”, the binding entry in experiment [1] is “binds”.

B1: protein phosphatase 1 regulatory inhibitor subunit 14C (protein, UniProt Q8TAE6 1-165)
chain: T1 sequence
In the case of B1, the binding result in experiment [2] is “binds”.
